PubChem BioAssay AID1259308, NCATS | 2017
This is an unselected part of about 59,000 reagents tested. About 1,510 of them (2.6%) were called active. 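Calls use total luciferase alone and ignore viability, so some active siRNAs may act by altering cell number.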 A number with no mark means an inactive call. Reagents against one gene are numbered here.

- Screen: 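Candidate targets for better recombinant protein yield in mammalian cells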 (primary screen)
- Cells: human HEK293 embryonic kidney cells stably expressing firefly luciferase (HEK-CMV-Luc2-Hygro)
- Reagents: single siRNA against human genes, 0.8 pmol siRNA per well
- Duration: 72 h
- Detection: 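Reporter luminescence and viable-cell signal on separate replicate plates, given as percent of non-targeting control and median/MAD z-scores, plus per-cell luciferase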
- Scale: total luciferase, z-score and total luciferase, % of control: higher = more reporter protein produced; luciferase per cell, z-score: higher = more reporter output per viable cell; viable cells, % of control: higher = more viable cells
- Rule for the call: 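An siRNA counts as active if its total luciferase robust z-score exceeds 3; genes with two or more such siRNAs out of three were retested with fresh siRNAs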
- Meaning of the calls: active = raised luciferase; inactive = no rise

Target gene | reagent | total luciferase, z-score | total luciferase, % of control | luciferase per cell, z-score | viable cells, % of control
ALDH7A1 | 1 | 1.84 | 118 | 1.79 | 82.7
ALDH7A1 | 2 | -1.79 | 46.2 | -1.34 | 73.5
ALDH7A1 | 3 | 0.368 | 89.2 | -0.115 | 103
IFT57 | 1 | -0.762 | 66.7 | -0.862 | 93.6
IFT57 | 2 | -1.59 | 50.2 | -1.01 | 73.1
IFT57 | 3 | 0.218 | 86.2 | 0.806 | 77.9
MIER3 | 1 | -0.368 | 74.6 | -0.576 | 97
MIER3 | 2 | 0.000963 | 81.9 | -0.178 | 95.9
MIER3 | 3 | -0.0276 | 81.3 | -0.715 | 110
VCP | 1 | 0.68 | 95.4 | 1.17 | 78.3
VCP | 2 | 0.375 | 89.3 | 0.109 | 97
VCP | 3 | -0.602 | 69.9 | 0.94 | 61

Part of the list above, reformatted:
Target gene	reagent	total luciferase, z-score	total luciferase, % of control	luciferase per cell, z-score	viable cells, % of control
MIER3	1	-0.368	74.6	-0.576	97
MIER3	2	0.000963	81.9	-0.178	95.9

Next reagents follow:
Target gene | reagent | total luciferase, z-score | total luciferase, % of control | luciferase per cell, z-score | viable cells, % of control
GCAT | 1 | -0.919 | 63.6 | -0.629 | 83.9
GCAT | 2 | -0.335 | 75.2 | -0.25 | 89.8
GCAT | 3 | -0.632 | 69.3 | -0.405 | 86.2
SNN | 1 | 0.14 | 84.7 | 0.744 | 77.8
SNN | 2 | 0.661 | 95 | 2.12 | 60.7
SNN | 3 | 1.17 | 105 | 0.537 | 102
PLCB2 | 1 | -0.161 | 78.7 | -0.507 | 101
PLCB2 | 2 | 0.325 | 88.4 | 0.174 | 94.3
PLCB2 | 3 | -1.67 | 48.7 | -1.73 | 85.9
LEPROTL1 | 1 | -0.164 | 78.6 | -0.636 | 104
LEPROTL1 | 2 | 1.26 | 107 | 1.56 | 79.3
LEPROTL1 | 3 | 1.7 | 116 | 0.759 | 106
